Earlier results in publication PMC12475274, “Harnessing indole scaffolds to identify small-molecule IRE1α inhibitors modulating XBP1 mRNA splicing” (Nature Communications, 2025).

How the values were obtained:
pIRE1α kinase = details: read-out: pIRE1α kinase enzymatic activity IC50; ref Concha et al., 2015; cited from earlier work
phosphorylated IRE1α = details: read-out: binding affinity toward phosphorylated IRE1α, IC50; competitive binding assay; ref Concha et al., 2015; cited from earlier work
dephosphorylated IRE1α = details: read-out: binding affinity toward dephosphorylated IRE1α, IC50; competitive binding assay; ref Concha et al., 2015; cited from earlier work

CN[C@@H]1C[C@H]2O[C@@](C)([C@@H]1OC)n1c3ccccc3c3c4c(c5c6ccccc6n2c5c31)C(=O)NC4 [STS, staurosporine]
IC50 (pIRE1α kinase): 3 nM | IC50 (phosphorylated IRE1α): 30 nM | IC50 (dephosphorylated IRE1α): 50 nM
